Results on one compound are retold here after paper PMC6335623, “A computationally designed binding mode flip leads to a novel class of potent tri-vector cyclophilin inhibitors” (Chemical Science, 2018).

Sequences of proteins named here, by UniProt entry; tags and fusion partners are left off. Residues count along the entry.
UniProt P23284, 34-216: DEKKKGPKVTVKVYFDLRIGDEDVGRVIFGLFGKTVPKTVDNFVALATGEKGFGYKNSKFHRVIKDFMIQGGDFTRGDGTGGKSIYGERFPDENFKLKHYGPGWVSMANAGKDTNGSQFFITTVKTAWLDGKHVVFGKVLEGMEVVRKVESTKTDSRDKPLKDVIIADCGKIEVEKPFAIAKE

The target in this test is T1, His-CypB (Homo sapiens, UniProt P23284).
T1 construct: made in house; host or cells: E. coli C41 BL21(DE3) ('C41 BL21(DH3)' [sic]); plasmid from the Edinburgh Protein Production Facility
As to the kind of experiment: biochemical. The class given is binding. On the procedure:
injection protocol (Fig. S9B). […]
using the same instrument parameters was performed (Fig. S9A).
Surface Plasmon Resonance (SPR)
SPR1 – SPR equipment and reagents
SPR measurements were performed on a BIAcore T200 instrument (GE Healthcare). Ni2+- nitrilotriacetic acid (NTA) sensor chips, 1-ethyl-3-(3- diaminopropyl) carbodiimide hydrochloride (EDC) and Nhydroxysuccinimide (NHS) were purchased from GE Healthcare.
SPR2 – Immobilization and covalent stabilizations of His-Cyps
Pure His-cyclophilins were immobilized and covalently stabilized on the NTA sensor chip according to the protocol described [Wear et al., 2017, FEBS OpenBio], using 200 nM concentrations of each protein, in Running Buffer (PBS, pH 7.4; 0.05% surfactant P20, 2% v/v ethanol; 50 µM EDTA), at 30 µl min-1 with 60 second contact times on the activated NTA surfaces.
(1 picture or pasted object on this page, not shown here) […]
Buffer (PBS, pH 7.4, 50 µM mM EDTA; 0.05 % v/v surfactant P20; 2 % v/ v ethanol), were injected over the sensor surface, at 100 µl.min -1 with a 90 s contact time and a 90 s dissociation time. […] The apparent on-rate (k+) and off-rate (k-) constants and the equilibrium dissociation constant (K d) were calculated from reference corrected sensorgrams by global fitting of a 1:1 binding model, including a mass transport term, using analysis software ( v.2.02, GE Healthcare) provided with the BIAcore T200 […]

Take `Cn1nnc(CN(Cc2ccc(N)cc2)C(=O)NCC(=O)N2CCCC2c2ccccc2Br)n1` (stereo not shown) [Compound 15]: binding was put at a Kd of 0.2 ± 0.1 µM.
